{"source": "PubChem BioAssay AID1671195 – Yale University, 2021", "test": "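Knockdowns that increase or decrease uptake of fluorescent LDL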 (primary screen)", "cell system": "human Huh7 hepatoma cells", "reagent": "siRNA pool against human genes, 18 nM", "time to read-out": "about 2 to 2.5 days of knockdown, then 8 h LDL uptake", "treatment": "DiI-labelled LDL at 30 µg/ml for 8 h, in lipoprotein-deficient serum medium", "measured": "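Fluorescent LDL signal imaged in cells, scaled to the plate median, robust z-score for each replicate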", "direction": "robust z-score: higher = more LDL uptake after knockdown", "call rule": "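Active when two or more replicates show a robust z-score above 2 or below -2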", "note": "This is an unselected part of about 22,000 deposited reagents. About 1,510 of them (6.9%) count as active. 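Active includes knockdowns raising or lowering LDL uptake; positive z-scores mean more uptake, negative mean less.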 Entries without a mark were called inactive."}
{"Target gene": "GNL2 (G protein nucleolar 2)", "robust z-score, replicate 1": 1.72, "robust z-score, replicate 2": -1.04, "robust z-score, replicate 3": -0.191}
{"Target gene": "RBAK (RB associated KRAB zinc finger)", "robust z-score, replicate 1": -0.59, "robust z-score, replicate 2": -1.07, "robust z-score, replicate 3": 1.45}
{"Target gene": "GDAP2 (ganglioside induced differentiation associated protein 2)", "robust z-score, replicate 1": 0.201, "robust z-score, replicate 2": 1.22, "robust z-score, replicate 3": 0.258}
{"Target gene": "FBXL7 (F-box and leucine rich repeat protein 7)", "robust z-score, replicate 1": -0.515, "robust z-score, replicate 2": 2.15, "robust z-score, replicate 3": -1.17}
{"Target gene": "IFNWP2 (interferon omega 1 pseudogene 2)", "robust z-score, replicate 1": 1.1, "robust z-score, replicate 2": 0.0834, "robust z-score, replicate 3": 0.666}
{"Target gene": "MAML2 (mastermind like transcriptional coactivator 2)", "robust z-score, replicate 1": -0.298, "robust z-score, replicate 2": -0.318, "robust z-score, replicate 3": -0.288}
{"Target gene": "CARINH", "robust z-score, replicate 1": -0.145, "robust z-score, replicate 2": -0.538, "robust z-score, replicate 3": -0.0675}
{"Target gene": "ZSWIM6 (zinc finger SWIM-type containing 6)", "robust z-score, replicate 1": -1.04, "robust z-score, replicate 2": -1.33, "robust z-score, replicate 3": -0.806}

Reformatted: entries from further up
{"Target gene":"GNL2 (G protein nucleolar 2)","robust z-score, replicate 1":1.72,"robust z-score, replicate 2":-1.04,"robust z-score, replicate 3":-0.191}
{"Target gene":"RBAK (RB associated KRAB zinc finger)","robust z-score, replicate 1":-0.59,"robust z-score, replicate 2":-1.07,"robust z-score, replicate 3":1.45}

The results go on.
{"Target gene": "GLDC (glycine decarboxylase)", "robust z-score, replicate 1": -0.531, "robust z-score, replicate 2": -0.569, "robust z-score, replicate 3": -0.782}
{"Target gene": "NGLY1 (N-glycanase 1)", "robust z-score, replicate 1": -0.738, "robust z-score, replicate 2": -0.0829, "robust z-score, replicate 3": -2.1}
{"Target gene": "LOC439987 (retired record)", "robust z-score, replicate 1": 0.0555, "robust z-score, replicate 2": 0.24, "robust z-score, replicate 3": -0.594}
{"Target gene": "RAB32 (RAB32, member RAS oncogene family)", "robust z-score, replicate 1": -0.396, "robust z-score, replicate 2": -0.743, "robust z-score, replicate 3": -0.039}
{"Target gene": "GNAI3 (G protein subunit alpha i3)", "robust z-score, replicate 1": 1.11, "robust z-score, replicate 2": 0.745, "robust z-score, replicate 3": 1.12}
{"Target gene": "ISCA1 (iron-sulfur cluster assembly 1)", "robust z-score, replicate 1": 0.856, "robust z-score, replicate 2": 1.48, "robust z-score, replicate 3": 1.49}
{"Target gene": "AFDN (afadin, adherens junction formation factor)", "robust z-score, replicate 1": 0.955, "robust z-score, replicate 2": -0.0736, "robust z-score, replicate 3": 0.623}
{"Target gene": "C19orf31 (retired record)", "robust z-score, replicate 1": -0.299, "robust z-score, replicate 2": -0.817, "robust z-score, replicate 3": -1.13}
